This note sets out measurements from PubChem BioAssay AID328 (DTP/NCI, 2004).

This assay relates to BDF1 mice, P388 leukemia ip, median survival T/C. As to the kind of experiment: NCI In Vivo Anticancer Drug Screen. Data for tumor model P388 Leukemia (intraperitoneal) in B6D2F1 (BDF1) mice. To be noted: T/C endpoint: median survival time, higher T/C = longer survival. The gist of the method: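 In tumour-bearing mice, survival after compound treatment is set against the vehicle group and given as a quotient.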

Where [1] appears, read: dose: 25.0 mg/kg/injection, schedule: Q01DX009 (ip), vehicle: saline with Tween-80.
Where [2] appears, read: dose: 100.0 mg/kg/injection, schedule: Q01DX009 (ip), vehicle: saline with Tween-80.
Setting [3] is: dose: 400.0 mg/kg/injection, schedule: Q04DX003 (ip), vehicle: Klucel (hydroxypropylcellulose) (HPC).
Where [4] appears, read: dose: 400.0 mg/kg/injection, schedule: Q04DX003 (ip), vehicle: saline with Tween-80.
The mark [5] stands for this setting: dose: 200.0 mg/kg/injection, schedule: Q01DX009 (ip), vehicle: saline with Tween-80.
[6] abbreviates: dose: 400.0 mg/kg/injection, schedule: Q01DX009 (ip), vehicle: saline with Tween-80.

The list is a part of this screen's results and no random one: it gathers tests that were run many times, whatever their T/C, doses with no T/C, and many T/C values between a quarter and a half above the control. Other doses and runs of a compound stand elsewhere. T/C gives the treated animals as a percentage of the vehicle group. Some doses have a count of surviving animals in place of a T/C: the source files T/C as zero there, which appears to mark a toxic dose or a test without result, not a measured value. Some survivor counts are full or nearly so, which does not show that the dose was tolerated: survival well below the control is almost never listed, so the zero probably covers shortened survival too. Survivors were counted at the toxicity check, usually on the fifth day, unless a day is given; later deaths do not show. Schedules are NCI's codes, taken here to give the interval after Q, in days (D) or hours (H), and the number of doses after X. Some schedule codes hold Z or #, which are not explained here. For survival time, the PubChem record calls one and a half times the control and up active, and a quarter to a half above the control has no call in these data; cut-offs in other NCI protocols can differ. Some entries were tested several times; the results are listed from low to high. Some T/C values carry the count of animals alive at the toxicity check (mostly the fifth day); where none is given, no animal had died by that day.

Regarding `CCCCc1ccc2nc(NC(=O)OC)[nH]c2c1`, the T/C was 129 % of control under setting [1]; 137 % of control (dose: 50.0 mg/kg/injection, schedule: Q01DX009 (ip), vehicle: saline with Tween-80); 129 % of control (dose: 50.0 mg/kg/injection, schedule: Q04DX003 (ip), vehicle: Klucel (hydroxypropylcellulose) (HPC)); 135 % of control (dose: 50.0 mg/kg/injection, schedule: Q04DX003 (ip), vehicle: other); 147 % of control (dose: 50.0 mg/kg/injection, schedule: Q04DX003 (ip), vehicle: saline with Tween-80); 147 % of control (dose: 100.0 mg/kg/injection, schedule: Q04DX003 (ip), vehicle: Klucel (hydroxypropylcellulose) (HPC)). Under setting [2], the survivor count is given as 6 of 7.

Consider `O=C(NO)c1ccccc1`, for which the T/C was 127 % of control [4 of 6 alive] (dose: 200.0 mg/kg/injection, schedule: Q01DX009 (ip), vehicle: Klucel (hydroxypropylcellulose) (HPC)) and 138 % of control under setting [3].

With `CCn1cnc2c(=S)nc[nH]c21`, the survivor count (dose: 125.0 mg/kg/injection, schedule: Q01DX010 (ip), vehicle: saline) is recorded as 6 of 6.

On to `Cc1ccc(C(=O)N(N)C2CCCCC2)cc1`, for which the survivor count is recorded as 6 of 6 under setting [1] and 6 of 6 under setting [2].

Turning to `O=S(=O)(C1=CCCCC1)C1=CCCCC1`, the survivor count (dose: 200.0 mg/kg/injection, schedule: Q04DX003 (ip), vehicle: saline with Tween-80) is on record as 6 of 6 and the survivor count under setting [4] is 6 of 6.

As for `CC(C)=CCC1=C(O)c2ccccc2C(=O)C1=O`, the T/C is 100, 109, 113, 118 % of control (dose: 100.0 mg/kg/injection, schedule: Q01DX010 (ip), vehicle: water) and 140 % of control (dose: 200.0 mg/kg/injection, schedule: Q#A X020 (ip), vehicle: other). For the same compound, the survivor count (dose: 125.0 mg/kg/injection, schedule: Q#A X020 (oral), vehicle: other) is on record as 6 of 6; the survivor count (dose: 200.0 mg/kg/injection, schedule: Q01DX010 (ip), vehicle: water) is given as 3 of 6; the survivor count (dose: 200.0 mg/kg/injection, schedule: Q#A X018 (ip), vehicle: other) was 1 of 6; the survivor count (dose: 250.0 mg/kg/injection, schedule: Q#A X018 (ip), vehicle: other) is recorded as 0 of 6; the survivor count (dose: 250.0 mg/kg/injection, schedule: Q#A X020 (oral), vehicle: other) is given as 5 of 6; the survivor count (dose: 300.0 mg/kg/injection, schedule: Q#A X018 (ip), vehicle: other) is on record as 0 of 6. Also, the survivor count (dose: 375.0 mg/kg/injection, schedule: Q#A X020 (oral), vehicle: other) is recorded as 3 of 6; the survivor count (dose: 500.0 mg/kg/injection, schedule: Q#A X020 (oral), vehicle: other) is 4 of 6; the survivor count (dose: 750.0 mg/kg/injection, schedule: Q#A X020 (oral), vehicle: other) was 1 of 6.

As to `Clc1ccc(-c2noc(CN3CCCCC3)n2)cc1`, the survivor count under setting [5] was 4 of 6.

For the compound `CCOP(=O)(OCC)ON1C(=O)c2cccc3cccc(c23)C1=O`, the survivor count (dose: 3.12 mg/kg/injection, schedule: Q01DX009 (ip), vehicle: Klucel (hydroxypropylcellulose) (HPC)) is given as 6 of 6.

Turning to `CCSC1(SCC)C(=O)OC2=C(CCCCC2)C1N(C)c1ccccc1` (stereo not given), the survivor count under setting [2] is given as 6 of 6.

As to `O=C(CBr)c1ccc(I)cc1`, the survivor count was 6 of 7 (dose: 85.0 mg/kg/injection, schedule: Q01DX010 (ip), vehicle: saline) and 0 of 7 (dose: 170.0 mg/kg/injection, schedule: Q01DX010 (ip), vehicle: saline).

Turning to `Sc1ccc(Nc2c3ccccc3nc3ccccc23)cc1`, the T/C under setting [5] was 125 [5 of 6 alive] and 134 % of control. Also, under setting [6], the survivor count was 5 of 6.

For the compound `Clc1ccc(-c2nc3ncccn3n2)cc1`, the survivor count under setting [2] is 6 of 6.

On to `COc1cccc2c1C(=O)c1c(O)c3c(c(O)c1C2=O)C[C@@](O)(C(=O)CO)C[C@@H]3OC1CC(N(C)C)C(O)C(C)O1` (stereo not given in full), for which, under “dose: 6.67 mg/kg/injection, schedule: Q04DX003 (ip), vehicle: water”, the survivor count is 8 of 8.

For `O=C(Nc1ccccc1C(=O)O)c1cc([N+](=O)[O-])cc([N+](=O)[O-])c1`, under setting [2], the T/C was 130 % of control. In addition, the survivor count under setting [5] is 4 of 6.

For `C[n+]1c(-c2ccc(Cl)cc2Cl)c2cc([N+](=O)[O-])ccc2c2ccccc21`, where the note is “dose: 12.5 mg/kg/injection, schedule: Q01DX009 (ip), vehicle: water”, the T/C is 129 % of control. The survivor count (dose: 50.0 mg/kg/injection, schedule: Q01DX009 (ip), vehicle: water) was 5 of 6.

In the case of `O=[N+]([O-])c1ccc(Sc2cccc[n+]2[O-])c2nonc12`, the survivor count (dose: 15.0 mg/kg/injection, schedule: Q01DX009 (ip), vehicle: saline with Tween-80) is reported as 3 of 7; the survivor count (dose: 30.0 mg/kg/injection, schedule: Q01DX009 (ip), vehicle: saline with Tween-80) is 1 of 7; the survivor count (dose: 60.0 mg/kg/injection, schedule: Q01DX009 (ip), vehicle: saline with Tween-80) is recorded as 0 of 7.

`COC(=O)CC(N)C(=O)OC` (stereo not given): under “dose: 200.0 mg/kg/injection, schedule: Q01DX009 (ip), vehicle: saline”, the survivor count is reported as 5 of 6.

For the compound `O=[N+]([O-])c1ccc(Oc2ccc(C3N(c4ccccc4)CCN3c3ccccc3)cc2)c([N+](=O)[O-])c1`, the survivor count (dose: 400.0 mg/kg/injection, schedule: Q01DX009 (ip), vehicle: water) is reported as 6 of 6.

`CCCCNC(C)(C)C(SS)c1cccs1` (stereo not given): the survivor count (dose: 400.0 mg/kg/injection, schedule: Q04DX003 (ip), vehicle: other) is listed as 5 of 6.

For the compound `OC(CNc1ccc(CSc2ccccc2)cc1)c1ccccc1` (stereo not given), the T/C (dose: 200.0 mg/kg/injection, schedule: Q01DX009 (ip), vehicle: other) was 132 % of control.

For the compound `S=C(N=Nc1ccccc1)NNc1ccccc1`, the survivor count runs as follows: under setting [2], 6 of 6; under setting [5], 5 of 6; under setting [6], 2 of 6.

For `C[CH2][Pb]([CH2]C)([CH2]C)[O]C(=O)c1ccc(N)cc1`, the T/C is 129 and 141 % of control (dose: 6.25 mg/kg/injection, schedule: Q01DX009 (ip), vehicle: Klucel (hydroxypropylcellulose) (HPC)); 135 % of control (dose: 12.0 mg/kg/injection, schedule: Q01DX009 (ip), vehicle: Klucel (hydroxypropylcellulose) (HPC)). For the same compound, the survivor count was 5 of 6 (dose: 12.5 mg/kg/injection, schedule: Q01DX009 (ip), vehicle: Klucel (hydroxypropylcellulose) (HPC)); 5 of 6 (dose: 24.0 mg/kg/injection, schedule: Q01DX009 (ip), vehicle: Klucel (hydroxypropylcellulose) (HPC)); 2 of 6 (dose: 25.0 mg/kg/injection, schedule: Q01DX009 (ip), vehicle: Klucel (hydroxypropylcellulose) (HPC)).

With `CCCN=C(N)c1ccc(NC(=O)c2ccc(C(=O)Nc3ccc(C(N)=NCCC)cc3)cc2)cc1`, the T/C is 135 % of control (dose: 2.0 mg/kg/injection, schedule: Q04DX003 (ip), vehicle: saline with Tween-80) and 140 % of control (dose: 75.0 mg/kg/injection, schedule: Q04DX003 (ip), vehicle: saline with Tween-80). Besides, the survivor count under setting [4] is listed as 5 of 6.

As for `CC(=O)OCCC/C(=C/c1ccc(/C=C(\CCCOC(C)=O)[N+](=O)[O-])cc1)[N+](=O)[O-]`, the survivor count under setting [3] is 3 of 6.

With `COS(C)(=O)=O`, the survivor count (dose: 100.0 mg/kg/injection, schedule: Q01DX010 (ip), vehicle: saline) was 6 of 6.

With `CCCCCCCCCCCCCCCC(=O)N(c1ccc(NC(=O)Nc2ccc(N(C(=O)CCCCCCCCCCCCCCC)C(C)CCCN(CC)CC)cc2)cc1)C(C)CCCN(CC)CC` (stereo not given), the survivor count (dose: 18.75 mg/kg/injection, schedule: Q01DX009 (ip), vehicle: saline with Tween-80) was 4 of 6; the survivor count (dose: 37.5 mg/kg/injection, schedule: Q01DX009 (ip), vehicle: saline with Tween-80) is 6 of 6; the survivor count (dose: 75.0 mg/kg/injection, schedule: Q01DX009 (ip), vehicle: saline with Tween-80) is listed as 6 of 6; the survivor count under setting [2] was 6 of 6; the survivor count (dose: 150.0 mg/kg/injection, schedule: Q01DX009 (ip), vehicle: saline with Tween-80) is recorded as 6 of 6; the survivor count under setting [5] is on record as 6 of 6. The survivor count under setting [6] was 6 of 6.
